From article PMC7819943, “Rice protein-binding microarrays: a tool to detect cis-acting elements near promoter regions in rice”
The list shows a part of the results.

Each sequence was assayed against T1, OsSMF1 (Oryza sativa, UniProt Q6ZLB0 1-436) (assay: protein-binding microarray (RPBM); PBS, 2% BSA, 51.3 ng/ul salmon testes DNA, 50 uM zinc acetate, 200 nM TF, 25 C, 1 h; high values mean tight binding). Conditions: protein: recombinant; tags: N-terminal polyhistidine and DsRed monomer fusion (pET32a); chain copies: 2; label: CyDye5-dUTP incorporated in the synthesized complementary strand; 3' TTTTT single-stranded linker to array surface; dsDNA, one strand shown.
T1 sequence: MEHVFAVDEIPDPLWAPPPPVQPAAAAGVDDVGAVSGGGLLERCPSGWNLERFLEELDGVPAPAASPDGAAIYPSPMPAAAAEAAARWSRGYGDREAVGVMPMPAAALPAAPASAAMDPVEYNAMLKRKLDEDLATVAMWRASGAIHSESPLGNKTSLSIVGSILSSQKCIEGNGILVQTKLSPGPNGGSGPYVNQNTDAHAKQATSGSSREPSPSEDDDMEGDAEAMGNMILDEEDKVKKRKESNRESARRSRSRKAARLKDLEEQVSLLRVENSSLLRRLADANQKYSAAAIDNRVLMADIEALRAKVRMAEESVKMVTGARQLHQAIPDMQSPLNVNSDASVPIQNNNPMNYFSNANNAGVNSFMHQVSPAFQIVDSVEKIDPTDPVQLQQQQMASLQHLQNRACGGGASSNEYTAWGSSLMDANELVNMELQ
In short: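 In PBS with 2% BSA, salmon testes DNA and 50 µM zinc acetate, 200 nM protein was incubated on a custom Agilent array at 25 °C for 1 h and then washed off. The array had been made double-stranded by primer extension with Cy5-dUTP and blocked with 2% BSA. The proteins were transcription factors fused N-terminally to polyhistidine and DsRed, expressed in E. coli BL21-CodonPlus and purified on Ni–NTA. The binding signal is per-feature fluorescence intensity (arbitrary units) from an Axon 4000B scanner.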

Sequence	binding signal
AACCGTTAAGCGAAAGTGACGTGGGAATGACGTCGCAGGCCGGAGTCACCTAGTGCAG	15500 fluorescence intensity (a.u.)
GCCGCACGCGTGCCGTCGGTGCTCAGCGAGCTGACGGAGCCGGAGTCACCTAGTGCAG	3820 fluorescence intensity (a.u.)
TTGCTGGTGGTATGAGGAATTTGTTGTCGACACAATCGTTCGGAGTCACCTAGTGCAG	3430 fluorescence intensity (a.u.)
CACTATAACTGCCATGCCACCTGTGCATATTATGTTGTCGCGGAGTCACCTAGTGCAG	5710 fluorescence intensity (a.u.)
ACCAAACCAATCCCCTGCGTCCACGTGTACATCTTAGTGCCGGAGTCACCTAGTGCAG	12800 fluorescence intensity (a.u.)
CCCTTTCCCCGCCGCCGCCATCACGTGGTCCTTGAGGAACCGGAGTCACCTAGTGCAG	3170 fluorescence intensity (a.u.)
AACAAGGCCGAGCTCTGCTCGCGTGGCATCTAACGTGCTCCGGAGTCACCTAGTGCAG	6350 fluorescence intensity (a.u.)
AAATACTACTAGTACAAGATAATTGAGCAAAATAAATACCCGGAGTCACCTAGTGCAG	37000 fluorescence intensity (a.u.)
TCAGGGCATTCCTAACCCAATGACTAGGATGGTGTCCATACGGAGTCACCTAGTGCAG	6580 fluorescence intensity (a.u.)
GAGATCGTTATCCTTTACATGTCATTTGTTAGTTGGCATTCGGAGTCACCTAGTGCAG	5250 fluorescence intensity (a.u.)
ATTGGAGCCTGACCTGAGTCACGTTGGATCCTGAACCTGACGGAGTCACCTAGTGCAG	4500 fluorescence intensity (a.u.)
CAAGGGTCATGTCCGCCTGTGAAAATCAGACCTCCACGTCCGGAGTCACCTAGTGCAG	3380 fluorescence intensity (a.u.)
ATTTATTTTAACTTATATCCATACTTTAGAATCACCCATACGGAGTCACCTAGTGCAG	28500 fluorescence intensity (a.u.)
GCTATACACTGCTGGATGCCTCTTGCTGTGTACGTGTAGCCGGAGTCACCTAGTGCAG	3810 fluorescence intensity (a.u.)
ATTCCAATTCCAGCTCAATGCTGCACGGAATCTCCTCTTCCGGAGTCACCTAGTGCAG	4140 fluorescence intensity (a.u.)
GCACCCGCGCGTGCAGAACCCATGGATGGGGTCACCACCACGGAGTCACCTAGTGCAG	8340 fluorescence intensity (a.u.)
ACCGCCTCACTCCATCCACCGCACCACCACCACTACCCTGCGGAGTCACCTAGTGCAG	3930 fluorescence intensity (a.u.)
GCGTACCCCGTGGTCCCCGTGGATTCATGGACCGTGGTCACGGAGTCACCTAGTGCAG	3820 fluorescence intensity (a.u.)
TTCTACTCTCCCACTCCTCTCTAACCACTGTACTATATACCGGAGTCACCTAGTGCAG	9980 fluorescence intensity (a.u.)
CATGTGCATTGTGTCAAAGGCTGATCTGTTTTCTTTTCCTCGGAGTCACCTAGTGCAG	3210 fluorescence intensity (a.u.)
CCAATCACGTCCCACCGAATCGCCACGTCAGCTCTGGTCCCGGAGTCACCTAGTGCAG	26700 fluorescence intensity (a.u.)

Sequence	binding signal
TTGAACCCCGTGTACATCAACAAACCACGTGTCCATCAAGCGGAGTCACCTAGTGCAG	6220 fluorescence intensity (a.u.)
ATCGATCGATAGCCCCGTGACGTCAAACGTCGTTCGTTGTCGGAGTCACCTAGTGCAG	18200 fluorescence intensity (a.u.)
CACAAGAGCAGACGACGGCATTGCGATCCCAAGCAGCAGCCGGAGTCACCTAGTGCAG	24600 fluorescence intensity (a.u.)
GCGTTGAGCGTGGTTGATGGGCCTTCTTTACGTGTATTTTCGGAGTCACCTAGTGCAG	3780 fluorescence intensity (a.u.)
ATCTGGAGTCGTCGTCGTCGTCGTCGTCGACTTGTCATCCCGGAGTCACCTAGTGCAG	3860 fluorescence intensity (a.u.)
CTCAATGCTATCCGATTCTACGTGTCGGGGCCAACCAACCCGGAGTCACCTAGTGCAG	3600 fluorescence intensity (a.u.)
CGTCGAACCGGCGGCGGCCCGCGCCACCCACCCTACCCGCCGGAGTCACCTAGTGCAG	49100 fluorescence intensity (a.u.)
TAGCCATATGCTAGTGCCCTACCTGACGTGTATGTATCGCCGGAGTCACCTAGTGCAG	8980 fluorescence intensity (a.u.)
CCCATTTCCAATAACACTATCTGATAGGAGTAGTCAAACACGGAGTCACCTAGTGCAG	3310 fluorescence intensity (a.u.)
GCTTTTCTTGTATTCCATCCCACGTAGTTTTCCTGTATTTCGGAGTCACCTAGTGCAG	3690 fluorescence intensity (a.u.)
GTTCCCACCAACCATTTTCCTACGTGGAGGATAGCAACAACGGAGTCACCTAGTGCAG	4650 fluorescence intensity (a.u.)
CTTCCTCTCTCTCTTCGTCAACACCACTCACTAGCTACTGCGGAGTCACCTAGTGCAG	3300 fluorescence intensity (a.u.)
GAGCCGTGCGCATCTGCCGTTAGAATTCGGAGCGTCAGACCGGAGTCACCTAGTGCAG	3640 fluorescence intensity (a.u.)
ACCACCATTAATATTTCTTGCGCTAGCTGCTTGCGATCTGCGGAGTCACCTAGTGCAG	10100 fluorescence intensity (a.u.)
CTTTCAGTTACGGGCCCCACCTGTCATTCTCTCACCTCTCCGGAGTCACCTAGTGCAG	3290 fluorescence intensity (a.u.)
TTGCAGTGCCACCTCACCGCCACGTAGGATGATGACTAAGCGGAGTCACCTAGTGCAG	25800 fluorescence intensity (a.u.)
TTTGTGTGGAATTTTGTACAACTCATCGCCATCAGCTTGCCGGAGTCACCTAGTGCAG	3790 fluorescence intensity (a.u.)
GCCGCCCGCGCGCGACCGCGTGACGTCGCAGCCGCACCGACGGAGTCACCTAGTGCAG	6080 fluorescence intensity (a.u.)
GAACGCAAGGGACGACACGACGCCATCGCCATGGCCATCGCGGAGTCACCTAGTGCAG	37600 fluorescence intensity (a.u.)
TTATTCGGTGAATAATATAATGGAGTAAGTATACGTACACCGGAGTCACCTAGTGCAG	5700 fluorescence intensity (a.u.)
CCACGCGGACACTGACACGTCATCATCGTGTTCGTTTCCTCGGAGTCACCTAGTGCAG	39300 fluorescence intensity (a.u.)

Some values from the results shown.
Value of CACAAGAGCAGACGACGGCATTGCGATCCCAAGCAGCAGCCGGAGTCACCTAGTGCAG under binding signal: 24600 fluorescence intensity (a.u.)
Value of TTATTCGGTGAATAATATAATGGAGTAAGTATACGTACACCGGAGTCACCTAGTGCAG under binding signal: 5700 fluorescence intensity (a.u.)
